Results are given in words; binding and its absence hold for the method and conditions named. Binding calls can cover weak binding; strength is not graded here.
What was measured:
[1] = target: zebrafish GFRα1a lacking domain D1 (zGFRα1a^ΔD1, zGFRα1a^151-353) (zebrafish) (UniProt Q98TT9); assay: crystal structure; purified zGDNF^mat.-zGFRα1a complex at 2.5 mg/ml; 100 mM Tris pH 8.0, 5 % PEG 20,000, 3.7 % acetonitrile, 100 mM NaCl; 22°C; both purified
[2] = target: zebrafish GFRα1a domains D1-D3 (zGFRα1a^D1-3) (zebrafish) (UniProt Q98TT9); assay: cryo-EM structure; reconstituted zRGα1a complex crosslinked by GraFix (glutaraldehyde), 0.1 mg/ml; 20 mM Tris pH 7.0, 150 mM NaCl, 1 mM CaCl2; untilted and 30° tilted datasets; both purified

B1: zebrafish GDNF, N-terminally truncated (zGDNF^mat.) (ligand, UniProt Q98TU0 135-235, looked up)
chain: VKGQGRGCLLKEIHLNVTDLDLGYRTKEELIFRYCSGPCHDAETNYDKILNNLTHNKKLDKDTPSRTCCRPIAFDDDISFLDDSLEYHTLKKHSAKKCACV
notes: One protomer; it stands as a dimer in the complexes; also called GDNF1; not shown: Protein A, C-terminal, cleaved
For B1, the binding [1] was “binds” and the binding [2] was “binds”.
